Results are given in words; binding and its absence hold for the method and conditions named. Binding seen in cells or lysates may run through a third protein. Binding can be weak; no strength is given.
Target: Homothorax, homeodomain-less isoform (Hth^HM) (Drosophila melanogaster)
Assay: co-purification (Co affinity chromatography); Exd and His-tagged Hth^HM co-expressed in E. coli BL21 and co-purified through the His-tag on Hth^HM; used as a complex for EMSAs

binding: binds
B1: Extradenticle (Exd) (protein, UniProt P40427 1-376)
chain: MEDPNRMLAHTGGMMAPQGYGLSGQDDGQNAGSENEVRKQKDIGEILQQIMSISEQSLDEAQARKHTLNCHRMKPALFSVLCEIKEKTVLSIRNTQEEEPPDPQLMRLDNMLIAEGVAGPEKGGGGAAAASAAAASQGGSLSIDGADNAIEHSDYRAKLAQIRQIYHQELEKYEQACNEFTTHVMNLLREQSRTRPITPKEIERMVQIIHKKFSSIQMQLKQSTCEAVMILRSRFLDARRKRRNFSKQASEILNEYFYSHLSNPYPSEEAKEELARKCGITVSQVSNWFGNKRIRYKKNIGKAQEEANLYAAKKAAGASPYSMAGPPSGTTTPMMSPAPPQDSMGYPMGSGGYDQQQPYDNSMGGYDPNLHQDLSP
